# Results published in the supplement of paper PMC3682954.
# Several values for one entry are separate records, joined by “and”; a condition that tells them apart may be missing. Equal values may be shown once. Where a name gives a salt, the structure may show the parent alone. ± gives the standard deviation of the averaged measurements. This is one part of the list. Repeats are few or missing, and single values can be far off.
# Test system: RAW 264.7
# Test: HMGB1-induced TNF-alpha production relative to HMGB1-stimulated control; higher = more TNF-alpha secretion (less inhibition)
# Conditions: stimulus: HMGB1 5 ug/ml, 18 h
# [1] = compound concentration: 1 ug/ml
SMILES,HMGB1-induced TNF-alpha production (compound concentration: 3 uM),HMGB1-induced TNF-alpha production [1]
COc1cc2c(cc1OC)C1CC(=O)C(CC(C)C)CN1CC2 (stereo not given) [Tetrabenazine],118%,–
CCCCC/C=C\C/C=C\C/C=C\C/C=C\CCCC(=O)Nc1ccc(O)cc1,126%,–
CCNC(=O)[C@H]1O[C@@H](n2cnc3c(N)ncnc32)[C@H](O)[C@@H]1O [5'-N-Ethylcarboxamidoadenosine],104%,–
O=c1cccc2n1CC1CC2CN(CCO)C1 (stereo not given),–,68.8% and 80%
Cc1cccc(C)c1NC1=NCCCS1 [Xylazine],100 ± 6.8%,–
Cc1cccc(C)c1NC1=NCCCS1,59%,–
Cc1cccc(C)c1NC1=NCCCS1 [Xylazine hydrochloride],110%,–
O=C1CN=C(c2ccccc2)c2cc([N+](=O)[O-])ccc2N1 [Nitrazepam],91.3%,–
Cc1ccc(S(=O)(=O)N[C@@H](CCCCN)C(=O)CCl)cc1 [Na-p-Tosyl-L-lysine chloromethyl ketone hydrochloride],105%,–
CCCN1CCC[C@@H](c2cccc(O)c2)C1 [S(-)-3PPP hydrochloride],111%,–
CN1C(=O)COc2c(C(=O)NC3CN4CCC3CC4)cc(Cl)cc21 (stereo not given) [Azasetron],103%,–
CC1(C)S[C@@H]2[C@H](N)C(=O)N2[C@H]1C(=O)O [(+)-6-Aminopenicillanic acid],–,80.9%
CC(=O)OCC1=C(C(=O)O)N2C(=O)[C@@H](NC(=O)CCC[C@@H](N)C(=O)O)[C@H]2SC1,96.3%,–
NC(=O)CN1CCCC1=O,83%,–
NC(=O)CN1CCCC1=O [Piracetam],84.9 ± 11%,–
COc1cc2c(cc1OC)C(C)NCC2 (stereo not given),71.5%,–
NCc1cc(O)no1 [Muscimol hydrobromide],76%,–

SMILES,HMGB1-induced TNF-alpha production (compound concentration: 3 uM),HMGB1-induced TNF-alpha production [1]
Oc1ccc(Cl)cc1,92.6%,–
CN1CC[C@@]2(C)c3cc(OC(=O)Nc4ccccc4)ccc3N(C)[C@@H]12 [Phenserine],74.2%,–
N#CCCN [3-Aminopropionitrile fumarate],94.6%,–
CC(C)c1c(CN(C)C(C)Cc2ccccc2)n(C)n(-c2ccccc2)c1=O (stereo not given) [Famprofazone],82.4%,–
CC(C)c1c(CN(C)C(C)Cc2ccccc2)n(C)n(-c2ccccc2)c1=O (stereo not given),72.8%,–
C=C(C)[C@@H]1[C@H]2OC(=O)[C@@H]1[C@]1(O)C[C@H]3O[C@]34C(=O)O[C@H]2[C@]14C,108%,–
C=C(C)[C@@H]1[C@H]2OC(=O)[C@@H]1[C@]1(O)C[C@H]3O[C@]34C(=O)O[C@H]2[C@]14C [Picrotoxinin],105%,72.9%
C=CCN1C[C@H](C(=O)N(CCCN(C)C)C(=O)NCC)C[C@@H]2c3cccc4[nH]cc(c34)C[C@H]21 [Cabergoline],90.4%,–
Oc1ccc2c3c1O[C@H]1c4oc5ccccc5c4C[C@@]4(O)[C@@H](C2)N(CC2CC2)CC[C@]314 [Naltriben methanesulfonate],107%,–
Oc1ccc2c3c1O[C@H]1c4oc5ccccc5c4C[C@@]4(O)[C@@H](C2)N(CC2CC2)CC[C@]314 [Naltriben methanesulfonate hydrate],105%,–
O=P1(NCCCl)OCCCN1CCCl (stereo not given) [Ifosfamide],99.6 ± 10%,–
O=P1(NCCCl)OCCCN1CCCl (stereo not given),88.6 ± 4.8%,–
C=CCc1ccccc1OCC(O)CNC1(C)CCC(C(C)(C)NC(=O)CBr)CC1 (stereo not given) [Bromoacetyl alprenolol menthane],92.2%,–
CC(=O)OCC(=O)[C@H]1CC[C@H]2[C@@H]3CC[C@H]4C[C@H](O)CC[C@]4(C)[C@H]3C(=O)C[C@]12C [Alfadolone acetate],78.3%,–
Cc1c2ccncc2c(C)c2c1[nH]c1ccccc12 [Ellipticine],41.9%,–
CC(C)NP(=O)(NC(C)C)OP(=O)(NC(C)C)NC(C)C [Tetraisopropyl pyrophosphoramide],95.4%,–
CC(=O)NBr [N-Bromoacetamide],83.9%,–

# Full records as entered above. Values in the order: HMGB1-induced TNF-alpha production (compound concentration: 3 uM) | HMGB1-induced TNF-alpha production [1]
# CC(=O)NBr [N-Bromoacetamide] in the list: 83.9% | –
# CC(C)c1c(CN(C)C(C)Cc2ccccc2)n(C)n(-c2ccccc2)c1=O (stereo not given) [Famprofazone] in the list: 82.4% | –
